Source: US5574012A, “Analogs of hirudin having anti-platelet activity” (Merrell Pharmaceuticals Inc., priority 1995, dated 1996)
pIC50: −log10 of the molar value. Read-outs that look alike come from different tables or passages of the source. For at least one compound, name, drawing or mass did not settle the structure.

Target: thrombin (Bos taurus, UniProt P00735)
Type: biochemical
Conditions: read-out: Bovine Antithrombin IC50

Row | SMILES | pIC50 | pIC50 (bovine)
1 | CC[C@H](C)[C@H](NC(=O)[C@@H]1CCCN1C(=O)[C@H](CCC(=O)O)NC(=O)[C@H](Cc1c[nH]c2ccccc12)NC(=O)[C@H](CC(=O)O)NC(=O)CNC(=O)CCCCN)C(=O)N1CCC[C@H]1C(=O)N[C@@H](CCC(=O)O)C(=O)N[C@@H](CCC(=O)O)C(=O)N[C@@H](C)C(=O)N[C@@H](CC1CCCCC1)C(=O)N[C@H](CCC(=O)O)C(=O)O [Example 2] | 5.77 | 
2 | CC[C@H](C)[C@H](NC(=O)[C@@H]1CCCN1C(=O)[C@H](CCC(=O)O)NC(=O)[C@H](Cc1c[nH]c2ccccc12)NC(=O)[C@H](CC(=O)O)NC(=O)C1CCC(CN)CC1)C(=O)N1CCC[C@H]1C(=O)N[C@@H](CCC(=O)O)C(=O)N[C@@H](CCC(=O)O)C(=O)N[C@@H](C)C(=O)N[C@@H](CC1CCCCC1)C(=O)N[C@H](CCC(=O)O)C(=O)O (some centres unmarked) [Example 9] |  | 5.46
